In all, about 340,000 compounds went through this assay and about 170 (0.05%) were called active. This list was built around the results that the source calls inconclusive (neither active nor inactive); the mix of calls is not that of the screen. Calls follow the shape of the dose curve; as a rule, active = well fitted inhibition curve with a large enough effect in the signal ratio, with a control signal flat (not every such curve was filed as active); inconclusive = small, poorly fitted or top-dose-only effect, or effect the other way, or a change in a side signal; inactive = flat fitted curve, though single readings scatter; the % refers to the signal ratio. Where the call is inconclusive, the potency comes from a doubtful curve fit.
assay: qHTS Assay to Find Inhibitors of Chronic Active B-Cell Receptor Signaling; details: ABC-DLBCL IkBa-CBG/CBR reporter, luminescence ratio (green luciferase fused to IkBa over red control in TMD8 lymphoma cells), 4 h; activity change, negative = inhibition: at 46.1 µM (top of the series);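 as to activity change, negative = inhibition: plate controls were basal doxycycline-induced cells for no effect and cells given 10 µM MG132 for full effect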
In short: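 Compounds up to 46 uM were incubated four hours with TMD8 cells whose green CBG68 luciferase is fused to IkappaBalpha; red CBR luminescence normalised the signal, and concentration-effect curves were fitted to fusion, red and ratio data.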
Potency is read from the fitted curve at half-maximal effect.

SMILES	activity change, negative = inhibition	Potency
Cc1ccc(/C=C2\C(=O)NC(=O)N(CCc3ccc(F)cc3)C2=O)o1	inactive: 15.6%	
Cc1ccc(S(=O)(=O)NP(=O)(Oc2ccccc2)Oc2ccccc2)cc1	inactive: 7.72%	
O=C1C(=O)c2cccc3cccc1c23		inconclusive: 5.8 µM [falling, full curve]
Cn1ccsc1=NC(=O)c1ccc(S(C)(=O)=O)c([N+](=O)[O-])c1		inconclusive: 25.1 µM [falling, single point]
CCCCn1c(O)c(C=Nc2c(C)n(C)n(-c3ccccc3)c2=O)c(=O)[nH]c1=O	inactive: 0.821%	
Clc1ccc(C(c2ccc(Cl)cc2)n2cc[n+](CC(OCc3ccc(Cl)cc3Cl)c3ccc(Cl)cc3Cl)c2)cc1 (configuration not stated)	inconclusive: -16.9%	
CCOc1cc2c(cc1OCC)-n1cccc1C(c1ccc(OC)cc1)NC2 (configuration not stated)	inactive: -25.7%	
Cc1c(P(=S)(c2ccccc2)c2ccccc2)[n+]2ccccc2n1C	inactive: -2.41%	
COC(=O)C1=C(c2ccc(OC(F)(F)F)cc2)C[C@@H]2CC[C@H]1N2C(=O)NCc1cccc2ccccc12	inconclusive: -5.89%	
NC(=O)N/N=C/c1c(O)ccc2oc3c(c12)CCCC3		inconclusive: 11.2 µM [activator, partial curve]
COc1ccc(/C=C/c2cc(C(F)(F)F)[nH]c(=O)n2)cc1OC		inconclusive: 25.1 µM [falling, single point]
CCOC(=O)c1ccc2c(c1)n(Cc1ccccc1)c(C)[n+]2CC	inconclusive: 1.86%	
O=C(CF)NC(NC(=S)Nc1ccccc1O)C(Cl)(Cl)Cl (configuration not stated)		inconclusive: 0.0891 µM [falling, full curve, poor fit]
CCOC(=O)C1CCN(C=C2C(=O)N(C)C(=S)N(C)C2=O)CC1	inconclusive: -4.27%	
CN(c1ccc(OCC(=O)N2CCN(C/C=C/c3ccccc3)CC2)cc1)S(=O)(=O)c1cccs1	inactive: -28.4%	
CN(C(=O)Oc1ccc(F)cc1)c1ccccc1	inconclusive: 3.02%	
CCCCNC(=O)Nc1ccc(C(O)(C(=O)OC)C(F)(F)F)cc1 (configuration not stated)	inconclusive: 1.75%	
N#CC(C#N)=C(C#N)c1ccc(Nc2ccccc2)cc1	inconclusive: -3.03%	
COc1ccc(-c2oc3cccnc3c2/C=C/c2ccc(OC)c(OC)c2)cc1		inconclusive: 10 µM [falling, partial curve]
COc1cc(O)cc2cc3c(c(O)c12)C(=O)CC(C)(O)O3 (configuration not stated)	inconclusive: 14.6%	
Cc1ccc(CN2CCN(Cc3ccccc3)CC2)cc1	inconclusive: 9.29%	
O=c1[nH]c(=S)n(C2CC2)c(O)c1C=Nc1ccc2c(c1)OCO2	inconclusive: 2.03%	

At a glance, part of the list above.
SMILES	activity change, negative = inhibition	Potency
Cc1ccc(/C=C2\C(=O)NC(=O)N(CCc3ccc(F)cc3)C2=O)o1	inactive: 15.6%	
Cc1ccc(S(=O)(=O)NP(=O)(Oc2ccccc2)Oc2ccccc2)cc1	inactive: 7.72%	

From PubChem BioAssay AID493014 (National Center for Advancing Translational Sciences (NCATS), 2011)
